Source: paper PMC5041976
No constants are given. Whether binding was seen depends on the method and setting. For some of these results: Binding seen in cells or lysates may run through a third protein. Some binding calls cover weakened binding; strength is not graded here. For some of these results: Where a sequence is shown, tags or fusion partners need not be part of it. Values belong to the molecule of their own block, whether it stands above or below them.

Amino acid sequences for entries named in this document (tags omitted). A change or cut given only in a name is not applied to a line headed by its entry.
UniProt P03372: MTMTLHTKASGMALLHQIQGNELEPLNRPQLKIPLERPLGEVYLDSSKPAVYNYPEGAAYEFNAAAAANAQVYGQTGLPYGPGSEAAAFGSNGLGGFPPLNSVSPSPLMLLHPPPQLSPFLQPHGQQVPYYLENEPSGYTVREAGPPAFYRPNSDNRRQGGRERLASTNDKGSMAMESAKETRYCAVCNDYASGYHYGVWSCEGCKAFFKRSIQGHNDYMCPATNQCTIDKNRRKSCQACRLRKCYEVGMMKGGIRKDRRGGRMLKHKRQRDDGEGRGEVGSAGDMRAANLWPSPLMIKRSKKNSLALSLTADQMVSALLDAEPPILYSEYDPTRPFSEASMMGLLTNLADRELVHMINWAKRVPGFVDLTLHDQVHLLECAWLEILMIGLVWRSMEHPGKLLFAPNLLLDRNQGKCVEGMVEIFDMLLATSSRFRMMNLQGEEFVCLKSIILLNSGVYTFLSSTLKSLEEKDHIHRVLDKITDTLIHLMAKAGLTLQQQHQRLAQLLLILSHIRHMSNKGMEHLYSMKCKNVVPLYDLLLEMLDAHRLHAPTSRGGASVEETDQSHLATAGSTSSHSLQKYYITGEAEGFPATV
UniProt Q13547: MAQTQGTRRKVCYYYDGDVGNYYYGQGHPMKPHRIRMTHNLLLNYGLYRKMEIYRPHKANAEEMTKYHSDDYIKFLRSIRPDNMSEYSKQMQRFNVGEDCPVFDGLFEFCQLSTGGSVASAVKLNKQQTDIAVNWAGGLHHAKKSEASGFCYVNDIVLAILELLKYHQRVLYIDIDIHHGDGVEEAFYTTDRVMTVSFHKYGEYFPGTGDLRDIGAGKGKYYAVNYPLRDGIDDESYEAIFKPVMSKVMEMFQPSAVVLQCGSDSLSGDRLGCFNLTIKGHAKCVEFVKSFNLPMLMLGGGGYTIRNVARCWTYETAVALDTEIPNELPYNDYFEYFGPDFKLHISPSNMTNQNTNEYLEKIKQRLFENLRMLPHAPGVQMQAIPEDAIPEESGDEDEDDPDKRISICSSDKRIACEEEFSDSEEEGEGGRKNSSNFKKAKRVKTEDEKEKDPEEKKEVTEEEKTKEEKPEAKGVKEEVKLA
UniProt Q92769: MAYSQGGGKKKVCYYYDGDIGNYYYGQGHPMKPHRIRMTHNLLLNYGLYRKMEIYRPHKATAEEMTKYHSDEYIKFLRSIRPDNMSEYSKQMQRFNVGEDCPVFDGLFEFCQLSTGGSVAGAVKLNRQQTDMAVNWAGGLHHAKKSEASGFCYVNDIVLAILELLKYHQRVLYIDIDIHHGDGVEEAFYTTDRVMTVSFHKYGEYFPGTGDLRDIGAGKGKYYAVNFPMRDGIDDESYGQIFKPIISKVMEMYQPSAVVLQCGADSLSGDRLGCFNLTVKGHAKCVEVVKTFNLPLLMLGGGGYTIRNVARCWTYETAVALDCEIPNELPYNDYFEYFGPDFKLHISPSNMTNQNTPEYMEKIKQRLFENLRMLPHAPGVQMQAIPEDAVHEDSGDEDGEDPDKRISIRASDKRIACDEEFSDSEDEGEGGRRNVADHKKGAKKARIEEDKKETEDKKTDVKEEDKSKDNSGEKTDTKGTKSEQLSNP

Tests used:
HA-TCF21 (human) = target: T1, HA-TCF21 (human) (UniProt O43680); assay: co-IP; HEK 293T cells co-transfected with two tagged proteins; IP by one tag (anti-GFP, anti-HA or anti-Flag), Western blot by the other tag; lysis in 50 mM Tris-HCl pH 7.4, 150 mM NaCl, 0.1% SDS, 1% NP-40, 0.5% sodium deoxycholate
T1 sequence: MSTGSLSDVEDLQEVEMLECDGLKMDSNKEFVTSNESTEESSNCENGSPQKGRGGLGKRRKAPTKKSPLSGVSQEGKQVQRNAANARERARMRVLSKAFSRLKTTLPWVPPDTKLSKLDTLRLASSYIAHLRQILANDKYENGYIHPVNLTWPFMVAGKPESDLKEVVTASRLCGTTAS

[1] = target: T2, Flag-TCF21 (expressed in HEK 293T) (human) (UniProt O43680); assay: as above
T2 sequence: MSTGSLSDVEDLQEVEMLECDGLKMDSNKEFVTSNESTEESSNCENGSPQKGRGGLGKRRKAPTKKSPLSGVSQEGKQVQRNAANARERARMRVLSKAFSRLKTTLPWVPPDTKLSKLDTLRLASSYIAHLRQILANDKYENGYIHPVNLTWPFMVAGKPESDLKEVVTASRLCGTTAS

[2] = target: T3, Flag-TCF21(K24R) (expressed in HEK 293T) (human) (UniProt O43680); assay: as above
T3 sequence: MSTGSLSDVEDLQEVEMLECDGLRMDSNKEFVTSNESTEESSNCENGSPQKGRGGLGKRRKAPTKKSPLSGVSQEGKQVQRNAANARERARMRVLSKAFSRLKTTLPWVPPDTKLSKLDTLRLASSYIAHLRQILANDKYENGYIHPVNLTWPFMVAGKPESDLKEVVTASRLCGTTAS

pBIND-TCF21 (human) = target: T4, pBIND-TCF21 (human) (UniProt O43680); assay: two-hybrid; CheckMate mammalian two-hybrid system in MCF-7 cells; pBIND-TCF21 with pACT-ERα, pG5-luc reporter, luciferase 36 h after transfection
T4 sequence: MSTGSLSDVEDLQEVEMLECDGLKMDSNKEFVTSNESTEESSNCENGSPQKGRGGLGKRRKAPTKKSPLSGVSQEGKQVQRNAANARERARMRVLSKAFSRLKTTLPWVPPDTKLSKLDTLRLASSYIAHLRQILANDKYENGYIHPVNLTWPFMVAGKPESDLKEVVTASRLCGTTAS

[3] = target: T5, Flag-TCF21 (expressed in MCF-7) (human) (UniProt O43680); assay: co-IP; re-IP: MCF-7 cells transfected with Flag-TCF21 or Flag-TCF21(K24R); IP with anti-ERα, re-IP with anti-Flag, Western blot with anti-HDAC1, anti-HDAC2, anti-Flag or anti-ERα
T5 sequence: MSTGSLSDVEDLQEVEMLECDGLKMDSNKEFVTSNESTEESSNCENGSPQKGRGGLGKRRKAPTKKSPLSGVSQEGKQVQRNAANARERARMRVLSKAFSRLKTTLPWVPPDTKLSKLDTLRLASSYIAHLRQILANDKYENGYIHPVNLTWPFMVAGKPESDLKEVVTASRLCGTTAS

[4] = target: T6, Flag-TCF21 (K24R) (expressed in MCF-7) (human) (UniProt O43680); assay: as above
T6 sequence: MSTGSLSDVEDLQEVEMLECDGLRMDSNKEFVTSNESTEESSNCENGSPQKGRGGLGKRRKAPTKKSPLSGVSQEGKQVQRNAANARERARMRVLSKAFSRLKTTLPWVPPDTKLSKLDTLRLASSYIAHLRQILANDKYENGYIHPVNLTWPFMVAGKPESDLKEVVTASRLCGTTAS

[5] = target: T7, transcription factor 21 (TCF21), endogenous (human (endogenous in MCF-7 and T47D)) (UniProt O43680); assay: co-IP; endogenous proteins in MCF-7 and T47D lysates; IP with anti-ERα and blot with anti-TCF21, or vice versa; anti-IgG as control; MCF-7 also with or without 17β-estradiol (E2; interaction weakened with E2); lysis in 50 mM Tris-HCl pH 7.4, 150 mM NaCl, 0.1% SDS, 1% NP-40, 0.5% sodium deoxycholate
T7 sequence: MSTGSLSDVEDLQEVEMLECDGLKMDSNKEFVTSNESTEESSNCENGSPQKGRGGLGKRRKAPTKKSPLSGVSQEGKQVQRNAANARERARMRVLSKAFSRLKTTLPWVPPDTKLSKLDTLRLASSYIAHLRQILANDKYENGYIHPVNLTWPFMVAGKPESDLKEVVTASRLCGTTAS

[6] = target: estrogen receptor-α (ERα), endogenous (human (endogenous in MCF-7 and T47D)) (UniProt P03372); assay: co-IP; re-IP: MCF-7 cells transfected with Flag-TCF21 or Flag-TCF21(K24R); IP with anti-ERα, re-IP with anti-Flag, Western blot with anti-HDAC1, anti-HDAC2, anti-Flag or anti-ERα
[7] = target: estrogen receptor-α (ERα), endogenous (human (endogenous in MCF-7 and T47D)) (UniProt P03372); assay: co-IP; endogenous proteins in MCF-7 and T47D lysates; IP with anti-ERα and blot with anti-TCF21, or vice versa; anti-IgG as control; MCF-7 also with or without 17β-estradiol (E2; interaction weakened with E2); lysis in 50 mM Tris-HCl pH 7.4, 150 mM NaCl, 0.1% SDS, 1% NP-40, 0.5% sodium deoxycholate
EGFP-ERα = EGFP-ERα (UniProt P03372); assay: co-IP; HEK 293T cells co-transfected with two tagged proteins; IP by one tag (anti-GFP, anti-HA or anti-Flag), Western blot by the other tag; lysis in 50 mM Tris-HCl pH 7.4, 150 mM NaCl, 0.1% SDS, 1% NP-40, 0.5% sodium deoxycholate

Molecule: Flag-tagged full-length ERα (from UniProt P03372 1-595)
- binding (HA-TCF21 (human)): binds

Molecule: pACT-ERα (from UniProt P03372 1-595)
- binding (pBIND-TCF21 (human)): binds

Molecule: HDAC1, endogenous (from UniProt Q13547 1-482) (enzyme)
- binding [3]: binds
- binding [4]: binds

Molecule: Myc-HDAC2 (from UniProt Q92769 1-488) (enzyme)
- binding [1]: binds

Molecule: HDAC2, endogenous (from UniProt Q92769 1-488) (enzyme)
- binding [3]: binds
- binding [4]: binds
- binding [6]: binds

B3: Flag-TCF21 (K24R) (expressed in MCF-7) (protein, UniProt O43680 1-179)
chain: MSTGSLSDVEDLQEVEMLECDGLRMDSNKEFVTSNESTEESSNCENGSPQKGRGGLGKRRKAPTKKSPLSGVSQEGKQVQRNAANARERARMRVLSKAFSRLKTTLPWVPPDTKLSKLDTLRLASSYIAHLRQILANDKYENGYIHPVNLTWPFMVAGKPESDLKEVVTASRLCGTTAS
- binding [6]: binds

B4: Flag-TCF21 (expressed in HEK 293T) (protein, UniProt O43680 1-179)
chain: MSTGSLSDVEDLQEVEMLECDGLKMDSNKEFVTSNESTEESSNCENGSPQKGRGGLGKRRKAPTKKSPLSGVSQEGKQVQRNAANARERARMRVLSKAFSRLKTTLPWVPPDTKLSKLDTLRLASSYIAHLRQILANDKYENGYIHPVNLTWPFMVAGKPESDLKEVVTASRLCGTTAS
- binding (EGFP-ERα): binds

Second part, the molecule after the results:

- binding [1]: binds
Molecule: Myc-HDAC1 (from UniProt Q13547 1-482) (enzyme)

- binding [1]: binds
- binding [2]: binds
Molecule: EGFP-ERα (from UniProt P03372 1-595)

- binding [5]: binds
Molecule: estrogen receptor-α (ERα), endogenous (from UniProt P03372 1-595)

- binding [7]: binds
B1: transcription factor 21 (TCF21), endogenous (protein, UniProt O43680 1-179)
chain: MSTGSLSDVEDLQEVEMLECDGLKMDSNKEFVTSNESTEESSNCENGSPQKGRGGLGKRRKAPTKKSPLSGVSQEGKQVQRNAANARERARMRVLSKAFSRLKTTLPWVPPDTKLSKLDTLRLASSYIAHLRQILANDKYENGYIHPVNLTWPFMVAGKPESDLKEVVTASRLCGTTAS

- binding [6]: binds
B2: Flag-TCF21 (expressed in MCF-7) (protein, UniProt O43680 1-179)
chain: MSTGSLSDVEDLQEVEMLECDGLKMDSNKEFVTSNESTEESSNCENGSPQKGRGGLGKRRKAPTKKSPLSGVSQEGKQVQRNAANARERARMRVLSKAFSRLKTTLPWVPPDTKLSKLDTLRLASSYIAHLRQILANDKYENGYIHPVNLTWPFMVAGKPESDLKEVVTASRLCGTTAS
